The series concerns hamster ear sebaceous glands. Nature of the series: Hamster ear sebaceous gland model, repeat topical application. The format is in vivo, Syrian golden hamster. The settings on record: 21 consecutive days, 75 mM, ear cross-sections (FIG. 3). Here is the method: The Syrian golden hamster ([…]) ear sebaceous gland model was used to evaluate the effect of repeat application of TOFA and TOFA analogs. Male animals were employed since they have larger sebaceous glands than females a consequence of their higher endogenous levels of androgenic hormones. To define compound effects, cross-sections prepared from hamster ears were treated with the neutral lipid-specific stain Oil Red O. Staining results were compared to the untreated ear of the same animal in order to account for any changes in the overall physiological state of the animal as well as potential systemic effects stemming from local drug application.
Typically, compounds were prepared and applied in 40% dimethyl acetamide (DMA)/30% acetone/30% ethanol (vehicle). […] Animals were evaluated daily for general appearance and potential clinical signs related to treatment such as edema, erythema, discoloration or other changes to the ears. Hamsters were also assessed for general health by coat appearance, behavior, and activity level. […]
To assess sebaceous gland status, ear cross-sections were initially cut at a thickness of approximately 8 μm onto glass slides and immediately fixed with 10% buffered formalin. […] Relative sebaceous gland areas (red staining areas) were determined using Image-Pro software (Media Cybernetics Inc., Silver Spring, Md.). […]

Turning to `CCCCCCCCCCCCCCOc1ccc(C(=O)OCC(F)(F)F)o1` [Compound A, 2,2,2-trifluoroethyl 5-(tetradecyloxy)furan-2-carboxylate], the “epidermal thickness in comparison to vehicle-treated controls” value is given as “greater”.
As to `CCCCCCCCCCCCCCOc1ccc(C(=O)O)o1` [TOFA, 5-(tetradecyloxy)-2-furancarboxylic acid], the “epidermal thickness in comparison to vehicle-treated controls” value is “greater”.

Source of the values: patent US9434718B2, “TOFA analogs useful in treating dermatological disorders or conditions” (Dermira (Canada), Inc., priority 2009, dated 2016).
